# Values of other authors as cited in patent publication US7659240B2, “Mucin immobilized chromatography” (Vertex Pharmaceuticals Incorporated, priority 2002, dated 2010).
# Where two headings read alike, the source gives them in different places.
# Test system: Caco-2
# Conditions: from literature, cited from earlier work
compound,measurement,setting,value
COc1ccc2cc([C@H](C)C(=O)O)ccc2c1 [Naproxen],Peff Caco-2 (×10^−6 cm/s),Table 5,74.2 ×10^−6 cm/s
same,Peff Caco-2 (×10^−6 cm/s),Table 6,74.2 ×10^−6 cm/s
